Measurements reported in PubChem BioAssay AID1224830 (NIAID, 2016)

Assay: 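Host factors that control LPS-induced TNF expression in human macrophages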 (primary screen)
Cell system: human THP-1 monocytic leukaemia cells, TNF dual-luciferase reporter clone, PMA-differentiated to macrophage-like cells
Reagents: siRNA pool against human genes, 50 nM
Timing: LPS for 4 h, given about 3 days after siRNA transfection
Treatment: bacterial LPS (TLR4 ligand), 10 ng/ml
Read-out: 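Ratio of firefly to renilla light, scaled to the plate median and expressed as a robust z-score per replicate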
Direction: TNF reporter robust z-score: higher = stronger TNF reporter response to LPS
Hit rule: 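Each well counts as active if its z-score is over 2.8 or under -1.5; controls are left without a call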
The deposit covers about 18,000 reagents; this is a random part of them. About 2,900 of all reagents (16%) count as active. 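Calls are made per well; low scores hint the gene aids the LPS response, high scores that it dampens it.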 Unmarked entries are inactive. Repeated entries: four replicate wells of each siRNA pool.

Target gene | TNF reporter robust z-score
CTXN1 | -0.07
CTXN1 | 0.08
CTXN1 | 0.83
CTXN1 | -0.43
IGF1R | -0.52
IGF1R | 0.16
IGF1R | -0.49
IGF1R | 0.44
SPON2 | -0.82
SPON2 | -0.89
SPON2 | -1.06
SPON2 | -0.69
SMCO4 | 0.4
SMCO4 | -0.2
SMCO4 | 1.59
SMCO4 | -0.05
PPP2R2D | -0.22
PPP2R2D | 0.94
PPP2R2D | 1.63
PPP2R2D | -0.52
BIN3 | -0.83
BIN3 | -0.45
BIN3 | -1
BIN3 | -1.3
IL4R | 1.28
IL4R | 0.92
IL4R | 0.78
IL4R | 0.27
CEP68 | -0.96
CEP68 | -0.78
CEP68 | -0.88
CEP68 | -0.74
PPP5C | 0.5
PPP5C | 0.31
PPP5C | -0.51
PPP5C | -0.16
NPAS2 | 1.2
NPAS2 | 1.43
NPAS2 | 0.78
NPAS2 | -0.25
SLC6A9 | -0.33
SLC6A9 | -0.22
SLC6A9 | -0.66
SLC6A9 | -0.17
AHR | 0.32
AHR | -0.36
AHR | -0.87
AHR | -0.21
TDP2 | -0.4
TDP2 | -0.74
TDP2 | -0.39
TDP2 | 0.17
GAN | 1.21
GAN | 1.91
GAN | 0.13
GAN | 1.41
SRPK1 | -1.79 (active)
SRPK1 | -1.77 (active)
SRPK1 | -1.94 (active)
SRPK1 | -1.51 (active)
PDK3 | 0.29
PDK3 | -0.12
PDK3 | 1.14
PDK3 | 0.11
GIN1 | 0.8
GIN1 | 0.64
GIN1 | 0.33
GIN1 | 0.61

Reagents above called active:
Target gene | TNF reporter robust z-score
SRPK1 | -1.79 (active)
SRPK1 | -1.77 (active)
SRPK1 | -1.94 (active)
SRPK1 | -1.51 (active)

Further records follow:
Target gene | TNF reporter robust z-score
PPARG | 0.74
PPARG | 1.39
PPARG | 0.93
PPARG | 1.41
TRIM34 | -1.23
TRIM34 | -0.55
TRIM34 | 0.79
TRIM34 | 1.4
TGM6 | -0.33
TGM6 | -0.82
TGM6 | 0.15
TGM6 | -0.34
PC | -0.73
PC | -0.71
PC | -1.61 (active)
PC | -1.72 (active)
PRSS54 | -0.32
PRSS54 | 0.35
PRSS54 | 0.25
PRSS54 | 0.1
CYB561A3 | 0.09
CYB561A3 | 0.46
CYB561A3 | -0.15
CYB561A3 | 0.08
PMP2 | 2.55
PMP2 | 6.15 (active)
PMP2 | 2.08
PMP2 | 1.33
KLF7 | 0.31
KLF7 | 1.79
KLF7 | -0.07
KLF7 | 2.04
FGF21 | 0.14
FGF21 | 1.45
FGF21 | -0.12
FGF21 | 0.59
ARRDC1-AS1 | 0.01
ARRDC1-AS1 | 1.19
ARRDC1-AS1 | 0.97
ARRDC1-AS1 | 0.49
AADAT | -0.43
AADAT | -0.35
AADAT | -1.08
AADAT | 0
